Source: US11744889B2, “Skin microenvironment targeted delivery for promoting immune and other responses” (University of Pittsburgh—Of the Commonwealth System of …, priority 2016, dated 2023)
Some entries share one result that the patent states for a list of compounds. At least one structure is not confirmed: it was looked up by name or label, or the drawing left a doubt.

Assay: Dye release from MNAs inserted into 4% agar test-gels
Assay type: physicochemical
Settings: dye alone in the CMC matrix of the needle tip
Text: To illustrate the delivery of multiple drugs with distinct release kinetics, MNAs were fabricated to delivery two distinct cargos by distinct release kinetics. Specifically, MNAs were fabricated to release the marker Toluidine Blue in an initial burst, followed by a sustained release of the marker FD&C Red40. Dyes were directly loaded in the MNA scaffold matrix (in this case CMC) of the needle tips and in some cases a second dye, encapsulated in a sustained release polymer was layer directly below. MNAs were inserted into 4% agar test-gels and removed after 1 min.
Images of dye diffusion were collected at the indicated time points (FIG. 39A). As shown in FIGS. 39A-C, FD&C Red40 (FIG. 39A) and toluidine blue (FIG. 39B), tracer dyes were tip-loaded in MNAs for immediate release. Alternatively, MNAs were fabricated with toluidine blue tip-loaded and FD&C Red40 encapsulated in a sustained release polymer (FIG. 39C). MNAs were inserted into 4% agar test-gel and removed after 1 min. Images were collected at the indicated time-points. Tip-loaded cargos were rapidly released from the MNAs and dispersed progressively in the gel (FIG. 39A and B). […] Upper panels depict images of microneedles from MNAs before application. The middle images are the imprints of the arrays 1 minute after application and MNA removal. […]

Work on `Cc1cc2nc3ccc(N(C)C)cc3[s+]c2cc1N.[Cl-]` [Toluidine Blue] yielded a diffusion essentially complete of at most 2 h and a release began of at most 1 min.
